Data taken from patent US20220168299A1, “PHARMACEUTICAL COMPOSITION COMPRISING TBN, OR SALT OR HYDRATE THEREOF, AND PREPARATION METHOD THEREOF” (GUANGZHOU MAGPIE PHARMACEUTICALS CO., LTD., priority 2019, published 2022).
Where “and” joins values, the source holds several entries; their conditions need not be identical. Identical values can stand only once. The name of at least one read-out is uncertain.

Experiment: Bioavailability test: pharmacokinetic study of TBN (API) and enteric-coated tablets in beagle dogs
Type: in vivo
Conditions: oral gavage, 175 mg, individual animal, listed as TBN (API)
Protocol: (10) Bioavailability test: Pharmacokinetic study of TBN (API) and enteric-coated tablets in beagle dogs
6 beagle dogs were randomly divided into 2 groups, each group having 3 animals. Each test animal was given with TBN (API) at a dosage of 175 mg, or 1 enteric-coated tablet with a specification of 175 mg prepared following the method in Example 17 by oral gavage. The blood sample was collected at various times (0.08, 0.25, 0.5, 1, 1.5, 2, 4, 8, 12, and 24 h), and analyzed by LC-MS/MS. A drug concentration-time curve was plotted to calculate the pharmacokinetic parameters.

Compound: Cc1nc(C)c(/C=[N+](\[O-])C(C)(C)C)nc1C [TBN, (cis)-2-methyl-N-[(3,5,6-trimethylpyrazin-2-yl)methylene)2-propylamine oxide]
- Vz/F: 1.43 L/kg and 0.85 L/kg
